Laboratory results: paper PMC4702122, “Embelin binds to human neuroserpin and impairs its polymerisation” (Scientific Reports, 2016)
Results are given in words; binding and its absence hold for the method and conditions named. For part of these data: Binding can be weak; no strength is given.

Assays:
[1] = target: T1, Neuroserpin (SERPINI1), wild type, uncleaved (human) (UniProt Q99574); test: SEC; Nat (4 mg/ml) with 1.5 mM (saturated) EMB overnight at 4, 20, 37, 45, 55 °C; Superdex200 10/300 GL, 10 mM Tris HCl, 50 mM KCl, pH 8.0; fractions also by SDS-PAGE; both purified
T1 sequence (chain, N-terminal initial formylmethionine (calculated mass 46285 Da)): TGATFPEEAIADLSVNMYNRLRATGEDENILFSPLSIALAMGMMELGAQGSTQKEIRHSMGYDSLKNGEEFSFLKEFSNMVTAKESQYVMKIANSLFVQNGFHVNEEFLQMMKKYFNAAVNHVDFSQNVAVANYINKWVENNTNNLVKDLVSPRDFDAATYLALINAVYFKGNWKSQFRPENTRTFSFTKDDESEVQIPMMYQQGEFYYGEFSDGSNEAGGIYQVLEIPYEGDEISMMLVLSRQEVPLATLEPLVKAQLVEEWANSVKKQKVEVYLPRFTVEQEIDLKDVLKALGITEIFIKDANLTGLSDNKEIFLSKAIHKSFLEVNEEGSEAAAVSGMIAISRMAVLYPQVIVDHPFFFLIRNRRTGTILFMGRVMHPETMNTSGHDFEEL

[2] = target: tissue plasminogen activator, active two-chain form (2ctPA); test: condition: only NS as SEC-purified monomeric or dimeric NS/EMB complex (2.4 μM NS, 0.4 μM 2ctPA); SDS-PAGE of the covalent acyl-enzyme complex; SEC-purified monomeric or dimeric NS/EMB complex (2.4 μM) with 2ctPA (0.4 μM), 6:1, 1-120 min, 25 °C, 50 mM Tris, 10 mM Na2HPO4, 150 mM NaCl, 0.1% Tween, pH 7.4; SYPRO Ruby; both purified
[3] = target: tissue plasminogen activator, active two-chain form (2ctPA); test: SDS-PAGE of the covalent acyl-enzyme complex; Nat (2.4 μM) with 2ctPA (0.4 μM), 6:1, 1-120 min, 25 °C, 50 mM Tris, 10 mM Na2HPO4, 150 mM NaCl, 0.1% Tween, pH 7.4; SYPRO Ruby; both purified

Molecule: Cleaved neuroserpin (Cle) (human)
- binding [1]: no binding

B1: Neuroserpin (SERPINI1), wild type, uncleaved (protein, UniProt Q99574 17-410)
chain: TGATFPEEAIADLSVNMYNRLRATGEDENILFSPLSIALAMGMMELGAQGSTQKEIRHSMGYDSLKNGEEFSFLKEFSNMVTAKESQYVMKIANSLFVQNGFHVNEEFLQMMKKYFNAAVNHVDFSQNVAVANYINKWVENNTNNLVKDLVSPRDFDAATYLALINAVYFKGNWKSQFRPENTRTFSFTKDDESEVQIPMMYQQGEFYYGEFSDGSNEAGGIYQVLEIPYEGDEISMMLVLSRQEVPLATLEPLVKAQLVEEWANSVKKQKVEVYLPRFTVEQEIDLKDVLKALGITEIFIKDANLTGLSDNKEIFLSKAIHKSFLEVNEEGSEAAAVSGMIAISRMAVLYPQVIVDHPFFFLIRNRRTGTILFMGRVMHPETMNTSGHDFEEL
modifications: N-terminal initial formylmethionine (calculated mass 46285 Da)
- binding [2]: no binding
- binding [3]: binds
